Measurements reported in paper PMC5013604.
Results are given in words; binding and its absence hold for the method and conditions named. In cells and extracts the contact can be indirect. Some entries that bind do so weakly or less than the wild type.

Sequences of proteins named here, by UniProt entry; tags and fusion partners are left off. A change or cut given only in a name is not applied to a line headed by its entry. A line that says so, or that is headed by a name, gives the form on record, which may keep a tag or linker.
PD-L1 4NQ of the GST pull-down (Q9NZQ7, form named): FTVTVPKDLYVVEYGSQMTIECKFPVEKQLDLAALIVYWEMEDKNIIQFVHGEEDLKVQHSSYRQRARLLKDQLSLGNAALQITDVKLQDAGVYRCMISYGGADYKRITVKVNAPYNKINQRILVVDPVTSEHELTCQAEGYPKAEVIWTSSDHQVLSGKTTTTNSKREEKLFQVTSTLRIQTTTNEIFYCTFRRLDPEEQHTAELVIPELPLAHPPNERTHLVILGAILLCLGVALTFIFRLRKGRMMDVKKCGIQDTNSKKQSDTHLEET
UniProt P49841: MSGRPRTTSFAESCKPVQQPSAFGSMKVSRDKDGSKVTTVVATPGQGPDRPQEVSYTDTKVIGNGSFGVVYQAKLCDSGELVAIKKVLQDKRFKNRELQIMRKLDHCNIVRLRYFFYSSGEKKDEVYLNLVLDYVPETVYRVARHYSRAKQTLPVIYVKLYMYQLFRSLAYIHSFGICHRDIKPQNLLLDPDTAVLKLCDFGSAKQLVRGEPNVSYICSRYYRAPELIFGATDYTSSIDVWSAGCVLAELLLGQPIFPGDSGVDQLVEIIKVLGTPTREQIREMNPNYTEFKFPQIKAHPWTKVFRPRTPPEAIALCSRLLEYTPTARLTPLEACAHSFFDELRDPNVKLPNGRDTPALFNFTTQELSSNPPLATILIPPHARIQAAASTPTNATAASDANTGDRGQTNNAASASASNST

Legend:
[1] = target: PD-L1 4NQ (PD-L1-Flag N35Q/N192Q/N200Q/N219Q) (human) (UniProt Q9NZQ7); assay: proximity ligation; Duolink assay in cells
[2] = target: PD-L1 4NQ (PD-L1-Flag N35Q/N192Q/N200Q/N219Q) (human) (UniProt Q9NZQ7); assay: co-IP; cells lysed in 50 mM Tris-HCl pH 8.0, 150 mM NaCl, 5 mM EDTA, 0.5% Nonidet P-40; cleared lysates immunoprecipitated with antibodies; which partner was precipitated is not told
[3] = target: PD-L1 4NQ of the GST pull-down (human) (UniProt Q9NZQ7); assay: pull-down; in vitro GST pull-down; which partner carried GST is not told

Substance | binding [1] | binding [2] | binding [3]
Glycogen synthase kinase 3β (GSK3β), in cells (from UniProt P49841 1-420) (enzyme) | binds | binds | –
GSK3β of the GST pull-down (from UniProt P49841 1-420) (enzyme) | – | – | binds
